# Where a name gives a salt, the structure may show the parent alone. ± gives the standard deviation of the averaged measurements. This is one part of the list. Part of the spread comes from offsets between plates or batches.
# Test system: E18 rat cortical neuron-glia co-culture
# Assay: total nuclei (DAPI) / Olig2+ nuclei (ratio); higher = more depletion of OPC/OL lineage cells
# Settings: treatment time: 8 days (DIV5-DIV13)
Structure (SMILES),total nuclei (1 µM),total nuclei (5 µM)
CO/N=C(\C(=O)N[C@@H]1C(=O)N2C(C(=O)O)=C(COC(C)=O)CS[C@H]12)c1csc(N)n1 [Cefotaxime],3.67,3.5
Nc1nc(N)c2nc(-c3ccccc3)c(N)nc2n1 [Triamterene],6.53,25.8
Nc1ncnc2c1ncn2[C@@H]1O[C@H](CO)C[C@H]1O [Cordycepin],> 40,> 40
O=C1CN(/N=C/c2ccc(-c3ccc([N+](=O)[O-])cc3)o2)C(=O)N1 [Dantrolene sodium salt dihydrate],5.61,4.5
CCC(C)(C)C(=O)O[C@H]1C[C@@H](C)C=C2C=C[C@H](C)[C@H](CC[C@@H]3C[C@@H](O)CC(=O)O3)[C@H]21 [Simvastatin],14.5,3.9
CC(C)(C)NC(=O)[C@H]1CC[C@H]2[C@@H]3CC[C@H]4NC(=O)C=C[C@]4(C)[C@H]3CC[C@]12C [Finasteride],2.9,3
CC(C(=O)O)c1ccc(CC2CCCC2=O)cc1 (stereo not drawn) [loxoprofen],2.71,2.7
CN(C)CCCC1(c2ccc(F)cc2)OCc2cc(C#N)ccc21 (stereo not drawn) [Citalopram],3.59 ± 0.91,3.87 ± 0.76
Cc1cnc(C(=O)NCCc2ccc(S(=O)(=O)NC(=O)NC3CCCCC3)cc2)cn1 [Glipizide],2.9,3
CC(=O)Nc1ccc(CC(=O)O)cc1 [Actarit],3.35,3.7
CN1CCc2cc(Cl)c(O)cc2C(c2ccccc2)C1 (stereo not drawn),3.74,4.1
CC(=O)OCC(=O)[C@@]12OC3(CCCC3)O[C@@H]1C[C@H]1[C@@H]3CCC4=CC(=O)C=C[C@]4(C)[C@@]3(F)[C@@H](O)C[C@@]12C [Amcinonide],2.81,2.5
CC(C)[N+](C)(CCOC(=O)C1c2ccccc2Oc2ccccc21)C(C)C [Propantheline],2.87,3.1
COc1ccc([C@@H]2Sc3ccccc3N(CCN(C)C)C(=O)[C@@H]2OC(C)=O)cc1 [Diltiazem],2.85,3.1
Cc1ccc(N(CC2=NCCN2)c2cccc(O)c2)cc1 [Phentolamine],2.65,2.3
CC1COc2c(N3CCN(C)CC3)c(F)cc3c(=O)c(C(=O)O)cn1c23 (stereo not drawn) [Ofloxacin],4.11 ± 0.5,4.25 ± 0.49
CN(C)CCOC(C)(c1ccccc1)c1ccccn1 (stereo not drawn) [Doxylamine],2.79,2.8
Nc1ncnc2c1ncn2[C@@H]1O[C@H](CO)[C@@H](O)[C@H]1O [Adenosine],3.68,4.2
CCC1=C[C@@H]2CN(C1)Cc1c([nH]c3ccccc13)[C@@](C(=O)OC)(c1cc3c(cc1OC)N(C)[C@H]1[C@@](O)(C(=O)OC)[C@H](OC(C)=O)[C@]4(CC)C=CCN5CC[C@]31[C@@H]54)C2 [Vinorelbine],14.6,39.8
CCCCC[C@H](O)/C=C/[C@H]1[C@H](O)CC(=O)[C@@H]1CCCCCCC(=O)O [Alprostadil],4.18,37.3
Cc1nnc(SCC2=C(C(=O)O)N3C(=O)[C@@H](NC(=O)Cn4cnnn4)[C@H]3SC2)s1 [Cefazolin],3.2,2.9
CC1(C)O[C@@H]2C[C@H]3[C@@H]4CCC5=CC(=O)C=C[C@]5(C)[C@@]4(F)[C@@H](O)C[C@]3(C)[C@]2(C(=O)CO)O1 [Azmacort],3.67,> 40
COC(=O)C[C@](O)(CCCC(C)(C)O)C(=O)O[C@@H]1C(OC)=C[C@]23CCCN2CCc2cc4c(cc2[C@H]13)OCO4 [Homoharringtonine],> 40,> 40
CC1=C(CC(=O)O)c2cc(F)ccc2/C1=C\c1ccc([S+](C)[O-])cc1 (stereo not drawn) [Sulindac],2.77,2.8
O=C(c1ccc(F)cc1)C1CCN(CCn2c(=S)[nH]c3ccccc3c2=O)CC1 [Altanserin],2.86,2.8
CN(C)CCC(c1ccc(Br)cc1)c1ccccn1 (stereo not drawn) [Brompheniramine],2.8,2.8
CO[C@H]1/C=C/O[C@@]2(C)Oc3c(C)c(O)c4c(O)c(c5c(nc6cc(C)ccn65)c4c3C2=O)NC(=O)/C(C)=C\C=C\[C@H](C)[C@H](O)[C@@H](C)[C@@H](O)[C@@H](C)[C@H](OC(C)=O)[C@@H]1C [Rifaximin],2.79,2.9
Oc1ccc(C2CNCCc3c2cc(O)c(O)c3Cl)cc1 (stereo not drawn) [Fenoldopam],4.06,4.4
Nc1ccc(S(=O)(=O)c2ccc(N)cc2)cc1 [Dapsone],4.49,3.7

# Compounds from the list above that have an NH in an aromatic ring (two):
Structure (SMILES),total nuclei (1 µM),total nuclei (5 µM)
CCC1=C[C@@H]2CN(C1)Cc1c([nH]c3ccccc13)[C@@](C(=O)OC)(c1cc3c(cc1OC)N(C)[C@H]1[C@@](O)(C(=O)OC)[C@H](OC(C)=O)[C@]4(CC)C=CCN5CC[C@]31[C@@H]54)C2 [Vinorelbine],14.6,39.8
O=C(c1ccc(F)cc1)C1CCN(CCn2c(=S)[nH]c3ccccc3c2=O)CC1 [Altanserin],2.86,2.8

# Source: the supplement of paper PMC4840960
